Laboratory results from publication PMC6199276.
No constants are given. Whether binding was seen depends on the method and setting. In cells and extracts the contact can be indirect. These calls come from enrichment with a bait or labelling near it, and not all partners need be listed.

Amino acid sequences for entries named in this document (tags omitted). A change or cut given only in a name is not applied to a line headed by its entry.
UniProt O16850: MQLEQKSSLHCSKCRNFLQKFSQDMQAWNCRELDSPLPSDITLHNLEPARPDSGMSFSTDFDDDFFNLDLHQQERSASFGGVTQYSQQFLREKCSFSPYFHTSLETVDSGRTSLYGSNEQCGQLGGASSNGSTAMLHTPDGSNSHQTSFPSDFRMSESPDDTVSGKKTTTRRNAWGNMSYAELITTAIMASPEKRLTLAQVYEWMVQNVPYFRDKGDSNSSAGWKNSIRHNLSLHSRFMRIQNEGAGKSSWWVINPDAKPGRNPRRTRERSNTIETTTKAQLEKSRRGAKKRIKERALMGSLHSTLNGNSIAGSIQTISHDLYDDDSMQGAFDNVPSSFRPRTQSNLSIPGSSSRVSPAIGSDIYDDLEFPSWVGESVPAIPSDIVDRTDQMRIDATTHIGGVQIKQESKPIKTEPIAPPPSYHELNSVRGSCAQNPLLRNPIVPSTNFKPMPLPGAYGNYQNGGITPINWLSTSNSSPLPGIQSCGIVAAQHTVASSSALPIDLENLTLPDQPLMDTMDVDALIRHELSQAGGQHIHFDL

B1: HLH-30 (protein, UniProt H2KZZ2 1-524)
chain: MIRQLNSPGGGGGLGLNNPRAQQPPGAQQQQQPQQAQQQFYDDEPYQANASQFRFGAGKSMEQRRETGNLIPIAQRSMGSTSTPFGSAPTQSYFGGGSSGAALSSPRKMQQTHQMLFGNIQPPRGSPPSDGSDKIHRFGESPTPGGVGGVFGTELDDLIIDELMGMEDDQRMRPGATRPMTIGGEKTMSMARPIPGASSRAGSGHSGSPITIPNAMSNNFRQVVSSSAPTSSIDIEKMIGAVSNGGGNSGGDNDPEDYYRDRRKKDIHNMIERRRRYNINDRIKELGQMLPKNTSEDMKLNKGTILKASCDYIRVLQKDREQAMKTQQQQKSLESTAHKYADRVKELEEMLARQGVQVPPSHLPPIPKVIERPIKQEIDESPPNHTPTGSFVSSSGFLSEVTNNTAAMQITSPNDSRPNNFMNNSAPSDSFFSVGSASPPDYRTSSGTASWKLPGSNAFSDLMMDDLNPMMNGDPLISSAGAHPSPHFHSSQMSPDIHWDASGFSPDPINTQQSNSGHYHMDFS
B2: FTT-2 (protein, UniProt Q20655 1-248)
chain: MSDGKEELVNRAKLAEQAERYDDMAASMKKVTELGAELSNEERNLLSVAYKNVVGARRSSWRVISSIEQKTEGSEKKQQMAKEYREKVEKELRDICQDVLNLLDKFLIPKAGAAESKVFYLKMKGDYYRYLAEVASGDDRNSVVEKSQQSYQEAFDIAKDKMQPTHPIRLGLALNFSVFFYEILNAPDKACQLAKQAFDDAIAELDTLNEDSYKDSTLIMQLLRDNLTLWTSDAATDDTDANETEGGN
B3: PAR-5 (protein, UniProt P41932 1-248)
chain: MSDTVEELVQRAKLAEQAERYDDMAAAMKKVTEQGQELSNEERNLLSVAYKNVVGARRSSWRVISSIEQKTEGSEKKQQLAKEYRVKVEQELNDICQDVLKLLDEFLIVKAGAAESKVFYLKMKGDYYRYLAEVASEDRAAVVEKSQKAYQEALDIAKDKMQPTHPIRLGLALNFSVFYYEILNTPEHACQLAKQAFDDAIAELDTLNEDSYKDSTLIMQLLRDNLTLWTSDVGAEDQEQEGNQEAGN

target: DAF-16::GFP (C. elegans) (UniProt O16850); test: affinity purification with mass spectrometry; DAF-16::GFP immunoprecipitated with anti-GFP antibody (3E6) on Protein A resin from whole-worm lysates of wild type, daf-2(e1370) and daf-18(mg198) animals; 50 mM HEPES pH 7.4, 150 mM KCl, 0.05% NP-40; eluted with glycine pH 2.6; LC-MS/MS; repeated with anti-GFP mFX73 and independently constructed lines

Row | binding | Binder
1 | binds | B1
2 | binds | B2
3 | binds | B3
